Data as given in publication PMC11222446.
No constants are given. Whether binding was seen depends on the method and setting. In cells and extracts the contact can be indirect. Some binding calls cover weakened binding; strength is not graded here. Where a sequence is shown, tags or fusion partners need not be part of it.

T1: FLAG-ADGRL2 expressed in HEK293T cells (UniProt Q8JZZ7)
T1 sequence: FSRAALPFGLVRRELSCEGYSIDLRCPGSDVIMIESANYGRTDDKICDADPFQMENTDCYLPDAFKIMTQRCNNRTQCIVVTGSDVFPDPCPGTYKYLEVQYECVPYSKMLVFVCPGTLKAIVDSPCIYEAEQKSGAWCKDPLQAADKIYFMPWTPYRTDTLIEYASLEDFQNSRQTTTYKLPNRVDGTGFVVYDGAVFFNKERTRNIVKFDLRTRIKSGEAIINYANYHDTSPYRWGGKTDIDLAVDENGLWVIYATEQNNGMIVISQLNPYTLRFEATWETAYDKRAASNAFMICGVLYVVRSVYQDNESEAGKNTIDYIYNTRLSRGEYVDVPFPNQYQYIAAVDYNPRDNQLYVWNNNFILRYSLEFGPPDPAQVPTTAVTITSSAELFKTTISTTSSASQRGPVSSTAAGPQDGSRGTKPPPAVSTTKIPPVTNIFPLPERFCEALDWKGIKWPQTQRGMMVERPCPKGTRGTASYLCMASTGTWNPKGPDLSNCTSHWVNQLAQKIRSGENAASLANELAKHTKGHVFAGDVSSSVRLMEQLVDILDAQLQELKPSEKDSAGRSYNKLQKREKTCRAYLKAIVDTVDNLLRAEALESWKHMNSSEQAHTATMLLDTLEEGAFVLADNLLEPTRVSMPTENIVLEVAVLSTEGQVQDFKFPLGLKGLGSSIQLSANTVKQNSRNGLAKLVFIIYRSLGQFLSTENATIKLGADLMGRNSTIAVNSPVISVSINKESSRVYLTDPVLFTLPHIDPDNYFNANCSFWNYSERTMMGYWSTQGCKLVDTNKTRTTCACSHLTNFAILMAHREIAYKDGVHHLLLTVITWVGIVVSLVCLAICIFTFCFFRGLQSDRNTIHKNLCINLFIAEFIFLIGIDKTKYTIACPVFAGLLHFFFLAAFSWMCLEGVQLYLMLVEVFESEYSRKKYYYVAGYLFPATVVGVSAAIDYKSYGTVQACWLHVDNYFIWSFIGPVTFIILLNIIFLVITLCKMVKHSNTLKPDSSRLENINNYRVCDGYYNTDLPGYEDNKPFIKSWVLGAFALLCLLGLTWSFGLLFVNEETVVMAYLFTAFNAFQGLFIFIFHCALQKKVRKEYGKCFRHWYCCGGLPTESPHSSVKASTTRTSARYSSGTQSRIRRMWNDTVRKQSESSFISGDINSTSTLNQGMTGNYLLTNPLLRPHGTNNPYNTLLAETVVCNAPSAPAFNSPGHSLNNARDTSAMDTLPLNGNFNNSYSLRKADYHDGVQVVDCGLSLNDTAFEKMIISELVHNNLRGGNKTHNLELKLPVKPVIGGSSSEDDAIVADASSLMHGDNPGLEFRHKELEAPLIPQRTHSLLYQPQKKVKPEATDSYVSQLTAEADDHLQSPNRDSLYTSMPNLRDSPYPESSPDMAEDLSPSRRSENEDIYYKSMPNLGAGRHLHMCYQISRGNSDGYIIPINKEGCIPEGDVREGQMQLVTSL

T2: His-PCLAF expressed in HEK293T cells (UniProt Q9CQX4)
T2 sequence: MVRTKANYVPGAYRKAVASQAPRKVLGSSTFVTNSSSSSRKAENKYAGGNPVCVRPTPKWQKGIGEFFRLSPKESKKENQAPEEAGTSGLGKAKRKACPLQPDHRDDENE


Key:
[1] = molecular target: T1, FLAG-ADGRL2 expressed in HEK293T cells; experiment: co-IP; HEK293T cells transfected with Flag-Adgrl2 and His-Pclaf plasmids; lysate immunoprecipitated with anti-His or anti-Flag antibody, protein G Sepharose; blotted with anti-Flag or anti-His (both directions)
[2] = molecular target: T2, His-PCLAF expressed in HEK293T cells; experiment: as above

| Binder | binding [1] | binding [2] |
| --- | --- | --- |
| His-PCLAF expressed in HEK293T cells (protein, UniProt Q9CQX4 1-110) MVRTKANYVPGAYRKAVASQAPRKVLGSSTFVTNSSSSSRKAENKYAGGNPVCVRPTPKWQKGIGEFFRLSPKESKKENQAPEEAGTSGLGKAKRKACPLQPDHRDDENE | binds | – |
| FLAG-ADGRL2 expressed in HEK293T cells (receptor, UniProt Q8JZZ7 26-1487) FSRAALPFGLVRRELSCEGYSIDLRCPGSDVIMIESANYGRTDDKICDADPFQMENTDCYLPDAFKIMTQRCNNRTQCIVVTGSDVFPDPCPGTYKYLEVQYECVPYSKMLVFVCPGTLKAIVDSPCIYEAEQKSGAWCKDPLQAADKIYFMPWTPYRTDTLIEYASLEDFQNSRQTTTYKLPNRVDGTGFVVYDGAVFFNKERTRNIVKFDLRTRIKSGEAIINYANYHDTSPYRWGGKTDIDLAVDENGLWVIYATEQNNGMIVISQLNPYTLRFEATWETAYDKRAASNAFMICGVLYVVRSVYQDNESEAGKNTIDYIYNTRLSRGEYVDVPFPNQYQYIAAVDYNPRDNQLYVWNNNFILRYSLEFGPPDPAQVPTTAVTITSSAELFKTTISTTSSASQRGPVSSTAAGPQDGSRGTKPPPAVSTTKIPPVTNIFPLPERFCEALDWKGIKWPQTQRGMMVERPCPKGTRGTASYLCMASTGTWNPKGPDLSNCTSHWVNQLAQKIRSGENAASLANELAKHTKGHVFAGDVSSSVRLMEQLVDILDAQLQELKPSEKDSAGRSYNKLQKREKTCRAYLKAIVDTVDNLLRAEALESWKHMNSSEQAHTATMLLDTLEEGAFVLADNLLEPTRVSMPTENIVLEVAVLSTEGQVQDFKFPLGLKGLGSSIQLSANTVKQNSRNGLAKLVFIIYRSLGQFLSTENATIKLGADLMGRNSTIAVNSPVISVSINKESSRVYLTDPVLFTLPHIDPDNYFNANCSFWNYSERTMMGYWSTQGCKLVDTNKTRTTCACSHLTNFAILMAHREIAYKDGVHHLLLTVITWVGIVVSLVCLAICIFTFCFFRGLQSDRNTIHKNLCINLFIAEFIFLIGIDKTKYTIACPVFAGLLHFFFLAAFSWMCLEGVQLYLMLVEVFESEYSRKKYYYVAGYLFPATVVGVSAAIDYKSYGTVQACWLHVDNYFIWSFIGPVTFIILLNIIFLVITLCKMVKHSNTLKPDSSRLENINNYRVCDGYYNTDLPGYEDNKPFIKSWVLGAFALLCLLGLTWSFGLLFVNEETVVMAYLFTAFNAFQGLFIFIFHCALQKKVRKEYGKCFRHWYCCGGLPTESPHSSVKASTTRTSARYSSGTQSRIRRMWNDTVRKQSESSFISGDINSTSTLNQGMTGNYLLTNPLLRPHGTNNPYNTLLAETVVCNAPSAPAFNSPGHSLNNARDTSAMDTLPLNGNFNNSYSLRKADYHDGVQVVDCGLSLNDTAFEKMIISELVHNNLRGGNKTHNLELKLPVKPVIGGSSSEDDAIVADASSLMHGDNPGLEFRHKELEAPLIPQRTHSLLYQPQKKVKPEATDSYVSQLTAEADDHLQSPNRDSLYTSMPNLRDSPYPESSPDMAEDLSPSRRSENEDIYYKSMPNLGAGRHLHMCYQISRGNSDGYIIPINKEGCIPEGDVREGQMQLVTSL | – | binds |
